Measured values taken from patent publication US20040101896A1.
These are yes or no findings as the source states them, for the method shown. Binding seen in cells or lysates may run through a third protein. Some results given as binding are weak or reduced against the parent protein; the word gives no strength. Where a sequence is shown, tags or fusion partners need not be part of it.

Key:
[1] = biological target: T1, FLAG-tagged K40M NIMA (full length, kinase-negative) expressed in HeLa tTA-1 cells (Aspergillus nidulans) (UniProt P11837); assay: co-immunoprecipitation
T1 sequence (looked up): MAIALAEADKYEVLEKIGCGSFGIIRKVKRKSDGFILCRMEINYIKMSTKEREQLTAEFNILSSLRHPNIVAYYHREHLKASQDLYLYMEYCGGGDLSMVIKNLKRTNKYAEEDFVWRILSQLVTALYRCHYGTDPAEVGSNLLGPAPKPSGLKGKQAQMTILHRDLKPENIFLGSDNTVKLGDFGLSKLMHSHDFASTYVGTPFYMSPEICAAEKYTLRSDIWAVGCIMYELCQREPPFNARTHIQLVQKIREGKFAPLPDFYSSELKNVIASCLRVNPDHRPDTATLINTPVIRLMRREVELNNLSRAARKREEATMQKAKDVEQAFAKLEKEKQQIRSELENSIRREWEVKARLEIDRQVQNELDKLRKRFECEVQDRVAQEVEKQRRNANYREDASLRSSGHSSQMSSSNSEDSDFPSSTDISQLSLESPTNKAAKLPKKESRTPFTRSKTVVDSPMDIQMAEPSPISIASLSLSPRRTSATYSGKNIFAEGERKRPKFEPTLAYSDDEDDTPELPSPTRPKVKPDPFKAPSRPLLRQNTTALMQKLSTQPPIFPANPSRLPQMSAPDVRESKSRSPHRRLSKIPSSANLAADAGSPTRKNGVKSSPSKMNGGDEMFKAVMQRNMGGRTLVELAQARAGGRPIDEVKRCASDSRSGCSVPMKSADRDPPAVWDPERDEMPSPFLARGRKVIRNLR

[2] = biological target: T1, FLAG-tagged K40M NIMA (full length, kinase-negative) expressed in HeLa tTA-1 cells (Aspergillus nidulans); assay: co-immunoprecipitation from HeLa tTA-1 cells (12CA5 and M2 mAbs), immunoblot
[3] = biological target: T1, FLAG-tagged K40M NIMA (full length, kinase-negative) expressed in HeLa tTA-1 cells (Aspergillus nidulans); assay: co-immunoprecipitation, figure description in the example

binding [1]: binds | binding [2]: binds | binding [3]: binds
Substance: HA-tagged Pin1 expressed in HeLa tTA-1 cells (from UniProt Q13526 1-163) (enzyme)
